From paper PMC5294785
These are yes or no findings as the source states them, for the method shown. Binding seen in cells or lysates may run through a third protein. Some entries that bind do so weakly or less than the wild type. Sequences can lack the tags named with a protein.

Sequences of proteins named here, by UniProt entry; tags and fusion partners are left off.
UniProt O95292: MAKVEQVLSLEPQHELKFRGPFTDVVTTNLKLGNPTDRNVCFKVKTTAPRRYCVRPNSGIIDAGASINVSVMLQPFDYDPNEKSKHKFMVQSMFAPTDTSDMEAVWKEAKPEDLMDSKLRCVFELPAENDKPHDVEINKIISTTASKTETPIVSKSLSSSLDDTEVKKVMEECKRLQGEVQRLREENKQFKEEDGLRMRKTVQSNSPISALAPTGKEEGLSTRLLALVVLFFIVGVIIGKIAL

Biological target: T1, GFP-ACBD5 (not stated (human cDNA cloned; an EGFP-rACBD5 is also used)) (UniProt Q5T8D3)
T1 sequence: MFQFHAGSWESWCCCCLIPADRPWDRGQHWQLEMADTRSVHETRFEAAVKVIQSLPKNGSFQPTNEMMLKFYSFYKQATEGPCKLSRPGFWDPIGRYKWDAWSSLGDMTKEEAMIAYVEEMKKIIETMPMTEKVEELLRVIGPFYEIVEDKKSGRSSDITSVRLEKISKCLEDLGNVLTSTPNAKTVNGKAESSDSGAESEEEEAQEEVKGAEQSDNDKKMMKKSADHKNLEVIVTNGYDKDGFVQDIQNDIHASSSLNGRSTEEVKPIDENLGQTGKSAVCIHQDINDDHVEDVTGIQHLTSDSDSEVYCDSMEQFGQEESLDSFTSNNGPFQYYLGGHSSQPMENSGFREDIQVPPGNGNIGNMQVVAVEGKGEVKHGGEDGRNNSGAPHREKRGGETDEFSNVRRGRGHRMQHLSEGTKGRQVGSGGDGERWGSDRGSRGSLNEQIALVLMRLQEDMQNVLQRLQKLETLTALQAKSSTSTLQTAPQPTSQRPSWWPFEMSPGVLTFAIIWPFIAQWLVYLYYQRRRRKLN
Assay: co-IP; GFP-ACBD5 and Myc-VAPB coexpressed in COS-7 cells; lysate (25 mM Tris-HCl pH 7.5, 150 mM NaCl, 1% NP-40) on GFP-TRAP magnetic agarose beads, 2 h at 4°C; immunoblot with Myc and GFP antibodies

binding: binds
Substance: Myc-VAPB (from UniProt O95292 1-243)
